Assay results: patent publication US20190169308A1
These are yes or no findings as the source states them, for the method shown. Some results given as binding are weak or reduced against the parent protein; the word gives no strength. One block for each binder: values may come before it.

How the values were obtained:
[1] = molecular target: T1, cynomolgus 5T4 on transfected CHO cells (Macaca mulatta (cynomolgus)) (UniProt F7CT46); test: flow cytometry, cynomolgus 5T4-transfected CHO cells
T1 sequence: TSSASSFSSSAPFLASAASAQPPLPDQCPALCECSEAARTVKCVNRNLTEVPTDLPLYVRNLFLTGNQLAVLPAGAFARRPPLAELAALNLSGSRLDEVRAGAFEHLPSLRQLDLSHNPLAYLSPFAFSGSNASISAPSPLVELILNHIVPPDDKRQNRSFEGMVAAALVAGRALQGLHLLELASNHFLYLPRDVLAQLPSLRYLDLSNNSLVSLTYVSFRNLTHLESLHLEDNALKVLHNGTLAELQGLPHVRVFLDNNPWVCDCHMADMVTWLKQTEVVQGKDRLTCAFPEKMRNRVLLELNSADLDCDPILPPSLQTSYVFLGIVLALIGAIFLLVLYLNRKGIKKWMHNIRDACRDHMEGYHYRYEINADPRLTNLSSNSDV

[2] = molecular target: T1, cynomolgus 5T4 on transfected CHO cells (Macaca mulatta (cynomolgus)); test: flow cytometry on CHO cells transfected with cynomolgus 5T4, anti-IgG(Fc)-PE, MFI normalised per antibody

- binding [1]: binds
- binding [2]: binds
B1: 1206/1207 (antibody, V domains shown)
VH: EVQLLESGGGLVQPGGSLRLSCAASGFTFSGSSMSWVRQAPGKGLEWVSSIYYSGSGTYYADSVKGRFTISRDNSKNTLYLQMNSLRAEDTAVYYCARYGRNVHPYNLDYWGQGTLVTVSS
VL: DIQMTQSPSSLSASVGDRVTITCRASQSISSYLNWYQQKPGKAPKLLIYAASSLQSGVPSRFSGSGSGTDFTLTISSLQPEDFATYYCQQGYYYLPTFGQGTKLEIK

- binding [1]: binds
- binding [2]: binds
B2: 1212/1213 (antibody, V domains shown)
VH: EVQLLESGGGLVQPGGSLRLSCAASGFTFSSYAMSWVRQAPGKGLEWVSYISSYGGYTSYADSVKGRFTISRDNSKNTLYLQMNSLRAEDTAVYYCARYHSGVLDYWGQGTLVTVSS
VL: DIQMTQSPSSLSASVGDRVTITCRASQSISSYLNWYQQKPGKAPKLLIYAASSLQSGVPSRFSGSGSGTDFTLTISSLQPEDFATYYCQQYYYHYLLTFGQGTKLEIK
